From US20130018039A1, “IMIDAZOLYL-IMIDAZOLES AS KINASE INHIBITORS” (priority 2010, published 2013)
Some results were stated once for a whole list of compounds, not compound by compound.

Protein sequences, listed by entry. Tags and fused reporters are not part of them.
UniProt O43353, whole entry: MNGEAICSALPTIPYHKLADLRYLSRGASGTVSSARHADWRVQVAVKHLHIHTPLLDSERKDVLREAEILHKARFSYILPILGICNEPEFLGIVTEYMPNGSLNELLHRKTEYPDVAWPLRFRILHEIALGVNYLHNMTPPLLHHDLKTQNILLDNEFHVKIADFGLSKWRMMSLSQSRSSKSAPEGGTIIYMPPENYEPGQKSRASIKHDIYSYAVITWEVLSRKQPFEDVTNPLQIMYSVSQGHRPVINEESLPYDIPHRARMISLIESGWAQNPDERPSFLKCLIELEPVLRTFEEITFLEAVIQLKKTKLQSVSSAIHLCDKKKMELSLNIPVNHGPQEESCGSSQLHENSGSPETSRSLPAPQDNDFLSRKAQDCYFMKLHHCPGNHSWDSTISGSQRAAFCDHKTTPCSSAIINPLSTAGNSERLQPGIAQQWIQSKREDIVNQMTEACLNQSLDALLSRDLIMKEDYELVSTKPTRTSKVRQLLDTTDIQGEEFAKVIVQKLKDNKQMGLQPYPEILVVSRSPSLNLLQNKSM

Target: T1, RIPK2 (full length FLAG His tagged RIPK2; RIP2 kinase) (Homo sapiens, UniProt O43353)
T1 construct: Full length FLAG His tagged RIPK2 was purified from a Baculovirus expression system; FLAG (N); 6His (N); made in house; host or cells: Spodoptera frugiperda (Sf9) insect cells, baculovirus
Assay: Fluorescent polarization based binding assay, competition with a fluorescently labeled ATP competitive ligand at the ATP binding pocket of RIPK2
Conditions: pIC50s averaged, minimum of 2 experiments; fluorescent ligand 5 nM

Row | SMILES | mean pIC50
1 | COCCn1ccnc1-c1cnc(-c2ccc3scnc3c2)[nH]1 [Example 113, 2′-(1,3-benzothiazol-5-yl)-1-[2-(methyloxy)ethyl]-1H,1′H-2,4′-biimidazole] | greater than 4.0
2 | COCCn1c(-c2cnc(-c3ccc4scnc4c3)[nH]2)nc(C)c1C [Example 114, 2′-(1,3-benzothiazol-5-yl)-4,5-dimethyl-1-[2-(methyloxy)ethyl]-1H,1′H-2,4′-biimidazole] | greater than 4.0
3 | CCc1nc(-c2cnc(-c3ccc4scnc4c3)[nH]2)n(CCOC)c1CC [Example 115, 2′-(1,3-benzothiazol-5-yl)-4,5-diethyl-1-[2-(methyloxy)ethyl]-1H,1′H-2,4′-biimidazole] | greater than 4.0
4 | COCCn1c(-c2c[nH]c(-c3ccc4scnc4c3)n2)nc2c1CCCC2 [Example 116, 5-(4-{1-[2-(methyloxy)ethyl]-4,5,6,7-tetrahydro-1H-benzimidazol-2-yl}-1H-imidazol-2-yl)-1,3-benzothiazole] | greater than 4.0
